For some assays here: Not every detail of the peptide structures is certain; ends, links or a residue may be inferred. At least one compound was matched to its structure with a doubt left. Where a SMILES comes first, the peptide text is derived from it. Bridges are numbered along the chain shown (N, C = ends). [ ]: non-standard residue; d: D form. The star is where a group is joined. C16 diacid = O=C(O)CCCCCCCCCCCCCCC(=O)*; AEEA = NCCOCCOCC(=O)O
Experiments:
MC38 tumours = assay: MC38 subcutaneous syngeneic tumour model, Agent 1 IV with suboptimal ADU-S100 IT; type: in vivo, mouse; conditions: Agent 1 i.v. + suboptimal ADU-S100 i.t.; narrowly missing significance
FIG. 10A = assay: FIG. 10A
Method: Table printed on a drawing sheet, FIG. 10A
(§1) The patent's description of the figure: FIGS. 10A-10C. Pharmacokinetic profile and parameter for peptides after intravenous administration. FIG. 10A) Mouse PK data (10 mg/kg, bolus IV, n=3 per timepoint). FIG. 10B) Rat PK data (10 mg/kg, bolus IV, n=3 per timepoint). FIG. 10C) Non-human primate (NHP) PK data (4 mg/kg, 30 min IV infusion, n=3). Error bars represent the standard deviation (SD).
First reader's note: Mouse PK parameters; the legend of the plot on the same sheet gives 10 mg/kg (IV) for both agents.

FIG. 10C = assay: FIG. 10C
Method: Table printed on a drawing sheet, FIG. 10C
as §1
First reader's note: The species NHP stands in the head column of row 2, and the plot legend on the same sheet gives the dosing as 4 mg/kg (30-min IV) for both agents.

FIG. 10B = assay: FIG. 10B
Method: Table printed on a drawing sheet, FIG. 10B
as §1
First reader's note: Rat PK parameters; the plot legend on the same sheet gives 10 mg/kg (IV) for both agents, and the top-left cell 'PK parameters / rat' spans the first two rows.

CC[C@H](C)[C@H](NC(=O)[C@H](CC(N)=O)NC(=O)[C@H](CCCCN)NC(=O)[C@H](C)NC(=O)[C@H](CCCCN)NC(=O)[C@H](CCCCN)NC(=O)COCCOCCNC(=O)COCCOCCNC(=O)CCCCCCCCCCCCCCC(=O)O)C(=O)N[C@H](C(=O)N[C@@H](CC(C)C)C(=O)N[C@@H](CC(C)C)C(=O)N[C@@H](CCCCN)C(=O)NCC(=O)N[C@@H](CC(C)C)C(=O)N[C@@H](CCC(=O)O)C(=O)N[C@H](C(=O)N[C@H](C(=O)N[C@@H](CC(N)=O)C(=O)N[C@@H](CC(=O)O)C(=O)N[C@@H](Cc1c[nH]c2ccccc12)C(=O)N[C@@H](Cc1c[nH]cn1)C(=O)N[C@@H](Cc1ccccc1)C(=O)N[C@H]1CSSC[C@@H](C(N)=O)NC(=O)[C@@H](CCCNC(=N)N)NC(=O)[C@H](CCCNC(=N)N)NC(=O)[C@@H](CCCCN)NC(=O)[C@H](CCCCN)NC(=O)[C@@H](CCCNC(=N)N)NC(=O)CNC(=O)[C@@H](CCCNC(=N)N)NC(=O)[C@H](CCCNC(=N)N)NC(=O)[C@@H](CCCNC(=N)N)NC1=O)[C@@H](C)CC)C(C)C)C(C)C [Agent 1] ({C16 diacid-AEEA-AEEA}-KKAKNIVLLKGLEVINDWHFC[dR]R[dR]G[dR]K[dK]R[dR]C-NH2; disulfide 21-31)
overall survival (time to reach a tumour volume of 400 mm^3) vs both single agents (MC38 tumours): longer | AUC0-inf (ng·h/mL) (FIG. 10A): 12,100 ng·h/mL | Clobs (FIG. 10A): 0.83 L/h/kg | AUC0-inf (ng·h/mL) (FIG. 10C): 16,170 ng·h/mL | C0 (ng/mL) (FIG. 10C): 22,020 ng/mL | Clobs (FIG. 10C): 0.26 L/h/kg | AUC0-inf (ng·h/mL) (FIG. 10B): 6,080 ng·h/mL | Clobs (FIG. 10B): 1.6 L/h/kg

Reference: patent US20240350647A1, “STING SENSITIZING AGENTS” (STipe Therapeutics ApS, priority 2023, published 2024)
